The record followed here is the supplement of paper PMC7666118.

Amino acid sequences for entries named in this document (tags omitted). A change or cut given only in a name is not applied to a line headed by its entry.
UniProt Q9Y287, whole entry, looked up: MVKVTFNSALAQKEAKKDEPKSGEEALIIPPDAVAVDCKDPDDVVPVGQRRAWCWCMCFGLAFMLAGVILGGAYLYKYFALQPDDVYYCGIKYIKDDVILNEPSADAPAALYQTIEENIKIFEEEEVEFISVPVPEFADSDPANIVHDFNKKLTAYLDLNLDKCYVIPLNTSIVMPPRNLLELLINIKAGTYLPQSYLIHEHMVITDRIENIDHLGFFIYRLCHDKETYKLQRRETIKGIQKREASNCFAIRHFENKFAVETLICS
UniProt Q96CN7: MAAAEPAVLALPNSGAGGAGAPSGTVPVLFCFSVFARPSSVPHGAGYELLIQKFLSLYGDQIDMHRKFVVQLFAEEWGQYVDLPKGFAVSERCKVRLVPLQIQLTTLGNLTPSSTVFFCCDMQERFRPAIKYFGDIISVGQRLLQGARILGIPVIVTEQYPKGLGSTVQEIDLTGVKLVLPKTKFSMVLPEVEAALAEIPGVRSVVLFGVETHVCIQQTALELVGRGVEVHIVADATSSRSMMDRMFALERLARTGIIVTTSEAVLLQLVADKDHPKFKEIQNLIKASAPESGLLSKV
UniProt O00629, whole entry: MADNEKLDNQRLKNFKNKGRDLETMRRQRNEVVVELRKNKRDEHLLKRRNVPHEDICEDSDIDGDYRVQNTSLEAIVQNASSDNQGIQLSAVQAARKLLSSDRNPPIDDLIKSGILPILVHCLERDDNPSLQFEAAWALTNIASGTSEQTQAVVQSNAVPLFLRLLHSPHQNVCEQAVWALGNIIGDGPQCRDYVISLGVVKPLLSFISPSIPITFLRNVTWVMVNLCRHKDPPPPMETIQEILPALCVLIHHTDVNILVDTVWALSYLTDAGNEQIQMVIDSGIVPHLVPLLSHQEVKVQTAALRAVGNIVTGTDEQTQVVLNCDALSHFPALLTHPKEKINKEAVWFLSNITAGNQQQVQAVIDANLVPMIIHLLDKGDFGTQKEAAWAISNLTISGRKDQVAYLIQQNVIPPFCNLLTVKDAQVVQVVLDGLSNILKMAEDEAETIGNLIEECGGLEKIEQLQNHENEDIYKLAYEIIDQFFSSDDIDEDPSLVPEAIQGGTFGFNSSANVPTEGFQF
UniProt Q9P2B7: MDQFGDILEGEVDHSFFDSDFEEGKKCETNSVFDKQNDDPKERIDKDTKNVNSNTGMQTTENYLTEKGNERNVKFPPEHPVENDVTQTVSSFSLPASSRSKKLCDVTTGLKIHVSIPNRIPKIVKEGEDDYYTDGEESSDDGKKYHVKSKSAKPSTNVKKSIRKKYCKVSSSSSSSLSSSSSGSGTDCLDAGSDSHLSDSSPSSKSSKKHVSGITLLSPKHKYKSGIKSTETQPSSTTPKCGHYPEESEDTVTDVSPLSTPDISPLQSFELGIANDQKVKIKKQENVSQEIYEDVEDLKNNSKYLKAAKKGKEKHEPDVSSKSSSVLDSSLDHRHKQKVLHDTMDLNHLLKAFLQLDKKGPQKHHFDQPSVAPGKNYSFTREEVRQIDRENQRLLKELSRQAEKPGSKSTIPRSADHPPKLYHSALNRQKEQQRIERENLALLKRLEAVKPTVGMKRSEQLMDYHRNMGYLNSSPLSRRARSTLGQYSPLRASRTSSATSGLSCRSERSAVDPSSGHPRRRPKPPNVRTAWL
UniProt Q7Z5L9: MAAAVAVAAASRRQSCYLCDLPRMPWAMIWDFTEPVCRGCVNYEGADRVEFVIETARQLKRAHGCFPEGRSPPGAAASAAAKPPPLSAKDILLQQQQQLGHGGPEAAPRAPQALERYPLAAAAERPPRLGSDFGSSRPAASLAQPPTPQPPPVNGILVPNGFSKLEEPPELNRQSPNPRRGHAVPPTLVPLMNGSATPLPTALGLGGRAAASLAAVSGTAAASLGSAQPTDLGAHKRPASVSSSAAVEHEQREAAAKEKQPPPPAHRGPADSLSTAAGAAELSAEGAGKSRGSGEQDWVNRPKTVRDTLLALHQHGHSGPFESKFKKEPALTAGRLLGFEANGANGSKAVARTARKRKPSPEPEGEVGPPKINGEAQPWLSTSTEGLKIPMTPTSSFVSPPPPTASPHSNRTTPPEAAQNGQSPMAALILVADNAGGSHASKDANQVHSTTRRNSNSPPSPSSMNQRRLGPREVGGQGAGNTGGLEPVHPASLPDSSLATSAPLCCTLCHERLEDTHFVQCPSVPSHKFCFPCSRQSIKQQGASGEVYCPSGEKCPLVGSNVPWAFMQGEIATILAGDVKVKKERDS
UniProt O00139: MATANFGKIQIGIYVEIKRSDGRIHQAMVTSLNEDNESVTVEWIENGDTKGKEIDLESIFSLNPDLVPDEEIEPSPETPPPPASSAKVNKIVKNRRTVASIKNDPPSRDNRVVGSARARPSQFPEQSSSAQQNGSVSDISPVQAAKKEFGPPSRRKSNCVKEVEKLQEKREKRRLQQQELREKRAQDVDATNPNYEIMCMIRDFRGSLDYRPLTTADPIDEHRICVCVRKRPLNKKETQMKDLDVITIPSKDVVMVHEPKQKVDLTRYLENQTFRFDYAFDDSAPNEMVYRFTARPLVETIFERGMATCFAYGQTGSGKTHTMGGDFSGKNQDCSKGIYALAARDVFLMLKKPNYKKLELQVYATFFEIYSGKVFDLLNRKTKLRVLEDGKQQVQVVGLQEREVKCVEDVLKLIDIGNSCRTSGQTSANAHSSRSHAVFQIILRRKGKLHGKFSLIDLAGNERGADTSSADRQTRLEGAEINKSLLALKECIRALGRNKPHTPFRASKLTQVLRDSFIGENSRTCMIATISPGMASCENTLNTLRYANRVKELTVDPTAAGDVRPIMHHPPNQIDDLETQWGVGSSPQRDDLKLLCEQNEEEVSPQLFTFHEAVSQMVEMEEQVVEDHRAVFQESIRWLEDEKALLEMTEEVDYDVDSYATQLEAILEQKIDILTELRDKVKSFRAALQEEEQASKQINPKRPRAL
UniProt P06213, whole entry: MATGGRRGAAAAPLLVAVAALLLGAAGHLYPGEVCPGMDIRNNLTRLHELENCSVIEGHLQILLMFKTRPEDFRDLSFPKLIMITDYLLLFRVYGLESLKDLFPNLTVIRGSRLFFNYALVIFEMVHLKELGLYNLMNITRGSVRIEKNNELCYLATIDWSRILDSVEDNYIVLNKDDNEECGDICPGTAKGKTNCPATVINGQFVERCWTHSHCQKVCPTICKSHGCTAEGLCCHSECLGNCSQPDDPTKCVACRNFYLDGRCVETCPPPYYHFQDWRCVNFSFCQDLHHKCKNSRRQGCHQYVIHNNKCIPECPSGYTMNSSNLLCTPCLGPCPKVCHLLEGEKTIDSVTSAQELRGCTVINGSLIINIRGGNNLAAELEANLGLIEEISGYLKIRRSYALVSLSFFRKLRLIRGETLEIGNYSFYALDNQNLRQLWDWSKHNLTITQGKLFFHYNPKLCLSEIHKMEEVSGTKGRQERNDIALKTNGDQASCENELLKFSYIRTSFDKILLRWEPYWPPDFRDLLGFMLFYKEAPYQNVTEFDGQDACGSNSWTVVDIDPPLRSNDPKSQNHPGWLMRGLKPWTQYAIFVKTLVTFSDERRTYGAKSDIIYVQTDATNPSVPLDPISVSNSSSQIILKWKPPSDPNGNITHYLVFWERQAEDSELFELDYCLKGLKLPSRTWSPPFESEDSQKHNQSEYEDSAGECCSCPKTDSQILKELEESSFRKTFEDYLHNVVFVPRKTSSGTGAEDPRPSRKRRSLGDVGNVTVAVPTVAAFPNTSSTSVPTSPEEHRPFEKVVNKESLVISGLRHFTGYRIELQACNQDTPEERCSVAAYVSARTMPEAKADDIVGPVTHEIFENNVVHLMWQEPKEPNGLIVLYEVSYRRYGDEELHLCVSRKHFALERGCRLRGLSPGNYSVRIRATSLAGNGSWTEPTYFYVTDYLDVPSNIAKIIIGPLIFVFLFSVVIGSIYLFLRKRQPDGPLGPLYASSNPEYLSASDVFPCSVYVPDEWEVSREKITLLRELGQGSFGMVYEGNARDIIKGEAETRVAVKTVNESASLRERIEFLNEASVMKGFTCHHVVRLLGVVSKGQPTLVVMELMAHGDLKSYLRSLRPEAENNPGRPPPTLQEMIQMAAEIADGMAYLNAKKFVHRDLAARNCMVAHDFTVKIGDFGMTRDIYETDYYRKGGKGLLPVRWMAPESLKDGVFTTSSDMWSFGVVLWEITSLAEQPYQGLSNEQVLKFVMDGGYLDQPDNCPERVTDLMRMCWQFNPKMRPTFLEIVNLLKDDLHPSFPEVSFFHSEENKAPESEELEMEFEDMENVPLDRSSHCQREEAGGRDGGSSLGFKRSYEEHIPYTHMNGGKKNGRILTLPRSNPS
UniProt Q8N163, whole entry: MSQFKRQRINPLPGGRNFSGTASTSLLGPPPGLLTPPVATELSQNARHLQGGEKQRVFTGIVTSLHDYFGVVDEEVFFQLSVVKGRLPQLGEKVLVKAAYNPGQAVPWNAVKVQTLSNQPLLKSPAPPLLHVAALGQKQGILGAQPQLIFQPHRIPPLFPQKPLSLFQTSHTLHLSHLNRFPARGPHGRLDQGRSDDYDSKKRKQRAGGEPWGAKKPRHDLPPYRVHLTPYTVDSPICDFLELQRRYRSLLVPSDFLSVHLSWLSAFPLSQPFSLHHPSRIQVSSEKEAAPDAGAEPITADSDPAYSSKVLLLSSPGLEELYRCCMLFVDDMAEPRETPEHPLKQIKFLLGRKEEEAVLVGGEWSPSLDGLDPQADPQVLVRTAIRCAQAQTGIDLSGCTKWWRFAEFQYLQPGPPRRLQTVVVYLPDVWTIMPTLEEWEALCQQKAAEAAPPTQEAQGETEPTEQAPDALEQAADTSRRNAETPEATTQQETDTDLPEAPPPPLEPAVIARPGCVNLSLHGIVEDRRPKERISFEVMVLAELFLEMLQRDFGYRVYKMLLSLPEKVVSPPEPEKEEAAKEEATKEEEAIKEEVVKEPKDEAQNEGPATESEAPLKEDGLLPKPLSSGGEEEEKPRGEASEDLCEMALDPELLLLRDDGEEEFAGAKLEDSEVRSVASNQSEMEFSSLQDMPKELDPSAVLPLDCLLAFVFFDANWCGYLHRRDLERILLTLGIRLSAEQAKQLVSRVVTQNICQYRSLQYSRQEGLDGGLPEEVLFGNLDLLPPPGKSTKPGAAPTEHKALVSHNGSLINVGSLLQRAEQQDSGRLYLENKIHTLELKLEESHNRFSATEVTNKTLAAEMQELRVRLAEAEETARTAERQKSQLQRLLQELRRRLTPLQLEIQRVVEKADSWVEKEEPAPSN
UniProt Q8IYS2: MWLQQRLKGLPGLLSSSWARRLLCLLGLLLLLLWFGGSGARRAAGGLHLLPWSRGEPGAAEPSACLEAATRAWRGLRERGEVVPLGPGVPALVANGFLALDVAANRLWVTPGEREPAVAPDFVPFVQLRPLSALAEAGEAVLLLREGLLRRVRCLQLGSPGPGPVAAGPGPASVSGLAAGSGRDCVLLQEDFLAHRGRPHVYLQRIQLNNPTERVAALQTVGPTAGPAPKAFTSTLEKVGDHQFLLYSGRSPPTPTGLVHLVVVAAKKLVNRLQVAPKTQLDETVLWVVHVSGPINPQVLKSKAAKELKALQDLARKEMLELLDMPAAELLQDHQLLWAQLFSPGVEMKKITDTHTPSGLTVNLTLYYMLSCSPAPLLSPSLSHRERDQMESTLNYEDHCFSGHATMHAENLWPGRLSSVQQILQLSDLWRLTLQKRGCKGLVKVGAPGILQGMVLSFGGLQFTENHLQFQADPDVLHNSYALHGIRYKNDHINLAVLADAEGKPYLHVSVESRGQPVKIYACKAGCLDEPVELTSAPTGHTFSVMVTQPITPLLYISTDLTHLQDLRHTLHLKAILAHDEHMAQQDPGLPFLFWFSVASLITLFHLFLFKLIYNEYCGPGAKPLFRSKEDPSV
UniProt O94819: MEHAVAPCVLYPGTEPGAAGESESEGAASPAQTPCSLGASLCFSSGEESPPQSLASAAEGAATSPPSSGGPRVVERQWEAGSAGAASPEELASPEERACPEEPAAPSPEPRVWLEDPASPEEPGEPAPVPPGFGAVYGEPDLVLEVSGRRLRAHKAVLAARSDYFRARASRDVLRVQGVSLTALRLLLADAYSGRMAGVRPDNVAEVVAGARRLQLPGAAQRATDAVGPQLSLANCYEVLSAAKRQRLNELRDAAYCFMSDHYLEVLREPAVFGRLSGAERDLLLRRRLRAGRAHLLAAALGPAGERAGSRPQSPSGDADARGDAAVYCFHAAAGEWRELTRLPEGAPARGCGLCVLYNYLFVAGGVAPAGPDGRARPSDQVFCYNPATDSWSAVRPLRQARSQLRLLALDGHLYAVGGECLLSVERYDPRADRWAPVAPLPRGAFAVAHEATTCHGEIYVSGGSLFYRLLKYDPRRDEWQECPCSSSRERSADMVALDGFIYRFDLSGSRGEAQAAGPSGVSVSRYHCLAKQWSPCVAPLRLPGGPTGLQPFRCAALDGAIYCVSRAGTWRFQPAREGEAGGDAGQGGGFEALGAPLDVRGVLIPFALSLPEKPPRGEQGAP

This is one part of the list.

Compound in this assay: COc1ccc(Cn2ccc3cc(C)c(C(=O)NO)cc32)cc1
The assay is described as follows: dose-dependent thermal stabilisation call (2D-TPP, DLPTP, 10% FDR) (binary (1 = stabilised)); higher = stabilised by the compound. The settings on record: system: HL-60 intact cells; concentration range 0.04-10 µM. The protocol:
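2D thermal proteome profiling in intact HL-60 cells treated with BRD-3811 (0, 0.04, 0.29, 2, 10 uM) for 90 min at 37 C, then heated 3 min at one of 12 temperatures (42-63.9 C). Soluble protein was quantified by TMT10 MS. The value is the DLPTP call of the paper: dose-dependent thermal stabilisation over all temperatures at 10% FDR (F-test of a dose-response against a flat model); one experiment, one call per tested protein.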
As for ITM2B (UniProt Q9Y287), the “dose-dependent thermal stabilisation call” value was inactive: 0.
Consider ISOC1 (UniProt Q96CN7), for which the “dose-dependent thermal stabilisation call” value is inactive: 0.
Regarding KPNA3 (UniProt O00505), the “dose-dependent thermal stabilisation call” value is inactive: 0.
Take KPNA4 (UniProt O00629): the “dose-dependent thermal stabilisation call” value is inactive: 0.
On to KIF23 (UniProt Q02241), for which the “dose-dependent thermal stabilisation call” value was inactive: 0.
For the target HSPH1 (UniProt Q92598), the “dose-dependent thermal stabilisation call” value is inactive: 0.
The figure for IFI35 (UniProt P80217) is inactive: 0.
Consider KIAA1429 (UniProt Q69YN4), for which the “dose-dependent thermal stabilisation call” value is inactive: 0.
For the target KIAA1430 (UniProt Q9P2B7), the “dose-dependent thermal stabilisation call” value is inactive: 0.
In the case of IRF2BP2 (UniProt Q7Z5L9), the “dose-dependent thermal stabilisation call” value is inactive: 0.
Regarding KLHL12 (UniProt Q53G59), the “dose-dependent thermal stabilisation call” value is inactive: 0.
With IDUA (UniProt P35475), the “dose-dependent thermal stabilisation call” value was inactive: 0.
The figure for ITGA5 (UniProt P08648) is inactive: 0.
Consider KCTD3 (UniProt Q9Y597), for which the “dose-dependent thermal stabilisation call” value is inactive: 0.
On to KIF2A (UniProt O00139), for which the “dose-dependent thermal stabilisation call” value was inactive: 0.
Regarding KLHL11 (UniProt Q9NVR0), the “dose-dependent thermal stabilisation call” value is inactive: 0.
In the case of KIAA1468 (UniProt Q9P260), the “dose-dependent thermal stabilisation call” value was inactive: 0.
The value for INSR (UniProt P06213) was inactive: 0; that for KIAA1712 (UniProt Q9C0F1) was inactive: 0; that for ITGB2 (UniProt P05107) was inactive: 0.
In the case of JAG1 (UniProt P78504), the “dose-dependent thermal stabilisation call” value was inactive: 0.
For the target ISG20L2 (UniProt Q9H9L3), the “dose-dependent thermal stabilisation call” value was inactive: 0.
For KIAA1967 (UniProt Q8N163), the “dose-dependent thermal stabilisation call” value was inactive: 0.
With JTV1 (UniProt Q13155), the “dose-dependent thermal stabilisation call” value was inactive: 0.
The figure for JMJD1C (UniProt Q15652) is inactive: 0.
IL17RA (UniProt Q96F46): the “dose-dependent thermal stabilisation call” value was inactive: 0.
The figure for IDS (UniProt P22304) is inactive: 0; for IMPA2 (UniProt O14732) it is inactive: 0.
Regarding KHSRP (UniProt Q92945), the “dose-dependent thermal stabilisation call” value is inactive: 0.
Consider IGSF8 (UniProt Q969P0), for which the “dose-dependent thermal stabilisation call” value was inactive: 0.
For the target JMJD1B (UniProt Q7LBC6), the “dose-dependent thermal stabilisation call” value was inactive: 0.
Consider ISCU (UniProt Q9H1K1), for which the “dose-dependent thermal stabilisation call” value is inactive: 0.
For KIAA2013 (UniProt Q8IYS2), the “dose-dependent thermal stabilisation call” value is inactive: 0.
KBTBD11 (UniProt O94819): the “dose-dependent thermal stabilisation call” value was inactive: 0.
As for KIF21A (UniProt Q7Z4S6), the “dose-dependent thermal stabilisation call” value is inactive: 0.
For ITM2A (UniProt O43736), the “dose-dependent thermal stabilisation call” value was inactive: 0.
